The values below come from publication PMC5177931.

By UniProt entry, the sequences of proteins in these tests, tags left out. Where a name states a change or a piece, a line headed by the entry shows the natural chain unless it says otherwise. Residues count along the entry.
UniProt Q9NXA8, residues 37-310: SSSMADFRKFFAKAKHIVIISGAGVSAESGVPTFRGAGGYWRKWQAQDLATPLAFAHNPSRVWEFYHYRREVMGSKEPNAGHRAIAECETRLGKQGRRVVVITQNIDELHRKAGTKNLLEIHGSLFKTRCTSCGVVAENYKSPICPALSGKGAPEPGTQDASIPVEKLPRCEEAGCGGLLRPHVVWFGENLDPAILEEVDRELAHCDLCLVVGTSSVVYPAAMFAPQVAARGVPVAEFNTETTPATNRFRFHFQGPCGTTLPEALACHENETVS
UniProt Q92793: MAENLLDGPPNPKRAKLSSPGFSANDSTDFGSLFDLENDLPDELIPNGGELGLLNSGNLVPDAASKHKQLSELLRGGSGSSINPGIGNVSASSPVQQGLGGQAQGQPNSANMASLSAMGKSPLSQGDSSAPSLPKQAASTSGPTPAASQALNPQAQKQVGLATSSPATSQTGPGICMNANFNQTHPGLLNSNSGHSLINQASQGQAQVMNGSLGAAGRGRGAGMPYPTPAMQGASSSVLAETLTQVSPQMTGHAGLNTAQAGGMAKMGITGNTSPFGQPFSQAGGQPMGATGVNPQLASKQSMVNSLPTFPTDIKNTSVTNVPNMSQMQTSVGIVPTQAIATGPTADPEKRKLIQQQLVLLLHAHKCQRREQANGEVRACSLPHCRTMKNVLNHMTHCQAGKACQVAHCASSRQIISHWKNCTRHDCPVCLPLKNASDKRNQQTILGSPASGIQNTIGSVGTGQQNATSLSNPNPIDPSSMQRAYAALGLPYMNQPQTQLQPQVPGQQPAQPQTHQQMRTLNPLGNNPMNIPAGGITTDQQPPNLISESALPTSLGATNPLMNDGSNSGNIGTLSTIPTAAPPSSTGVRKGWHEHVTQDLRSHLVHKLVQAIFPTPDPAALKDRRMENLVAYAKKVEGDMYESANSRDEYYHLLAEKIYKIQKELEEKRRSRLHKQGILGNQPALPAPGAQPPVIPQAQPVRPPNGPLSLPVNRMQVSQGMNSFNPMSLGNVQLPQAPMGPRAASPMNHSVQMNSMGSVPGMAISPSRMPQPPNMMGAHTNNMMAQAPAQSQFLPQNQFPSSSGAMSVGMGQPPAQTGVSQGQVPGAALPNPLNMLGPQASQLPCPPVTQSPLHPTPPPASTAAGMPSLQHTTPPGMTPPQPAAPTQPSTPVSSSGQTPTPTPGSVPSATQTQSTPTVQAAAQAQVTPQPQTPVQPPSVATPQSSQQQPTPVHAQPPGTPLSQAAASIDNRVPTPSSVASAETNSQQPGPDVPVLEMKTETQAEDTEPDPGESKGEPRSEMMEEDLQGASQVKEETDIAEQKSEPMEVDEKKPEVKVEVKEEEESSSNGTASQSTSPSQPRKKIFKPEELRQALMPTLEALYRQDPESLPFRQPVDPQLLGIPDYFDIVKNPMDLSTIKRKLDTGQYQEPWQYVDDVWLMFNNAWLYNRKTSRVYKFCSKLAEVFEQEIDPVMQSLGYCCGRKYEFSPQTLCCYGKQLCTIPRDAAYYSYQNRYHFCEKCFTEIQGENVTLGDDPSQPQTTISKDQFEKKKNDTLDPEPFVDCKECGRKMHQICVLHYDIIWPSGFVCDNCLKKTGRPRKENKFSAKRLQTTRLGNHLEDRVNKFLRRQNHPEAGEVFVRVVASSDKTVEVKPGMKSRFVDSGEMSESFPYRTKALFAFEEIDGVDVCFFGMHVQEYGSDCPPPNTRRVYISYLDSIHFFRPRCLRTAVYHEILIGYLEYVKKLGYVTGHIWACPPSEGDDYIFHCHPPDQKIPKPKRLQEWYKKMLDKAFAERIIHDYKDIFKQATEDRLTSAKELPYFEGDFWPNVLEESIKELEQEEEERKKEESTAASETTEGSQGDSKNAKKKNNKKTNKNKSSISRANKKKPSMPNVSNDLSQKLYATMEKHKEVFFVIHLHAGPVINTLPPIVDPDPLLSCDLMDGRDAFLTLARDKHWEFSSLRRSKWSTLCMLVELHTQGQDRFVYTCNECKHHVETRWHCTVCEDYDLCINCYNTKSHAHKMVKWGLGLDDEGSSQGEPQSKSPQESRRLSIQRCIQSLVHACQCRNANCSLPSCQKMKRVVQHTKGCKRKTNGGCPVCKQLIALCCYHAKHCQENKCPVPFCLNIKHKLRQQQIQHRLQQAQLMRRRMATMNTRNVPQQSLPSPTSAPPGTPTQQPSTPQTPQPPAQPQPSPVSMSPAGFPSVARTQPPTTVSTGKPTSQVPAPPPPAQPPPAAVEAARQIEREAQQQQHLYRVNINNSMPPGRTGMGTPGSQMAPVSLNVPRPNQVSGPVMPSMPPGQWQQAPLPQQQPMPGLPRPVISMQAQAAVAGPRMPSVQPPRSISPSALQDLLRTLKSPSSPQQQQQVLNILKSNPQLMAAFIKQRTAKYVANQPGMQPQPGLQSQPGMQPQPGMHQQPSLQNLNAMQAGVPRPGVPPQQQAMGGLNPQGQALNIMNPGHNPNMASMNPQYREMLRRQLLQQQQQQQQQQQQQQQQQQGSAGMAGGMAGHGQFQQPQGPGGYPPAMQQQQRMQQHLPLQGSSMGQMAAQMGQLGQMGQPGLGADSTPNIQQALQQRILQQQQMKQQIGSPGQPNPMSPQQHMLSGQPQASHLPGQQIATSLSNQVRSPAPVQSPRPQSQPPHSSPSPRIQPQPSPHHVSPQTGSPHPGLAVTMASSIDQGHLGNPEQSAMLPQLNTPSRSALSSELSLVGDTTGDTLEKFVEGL
UniProt P40763: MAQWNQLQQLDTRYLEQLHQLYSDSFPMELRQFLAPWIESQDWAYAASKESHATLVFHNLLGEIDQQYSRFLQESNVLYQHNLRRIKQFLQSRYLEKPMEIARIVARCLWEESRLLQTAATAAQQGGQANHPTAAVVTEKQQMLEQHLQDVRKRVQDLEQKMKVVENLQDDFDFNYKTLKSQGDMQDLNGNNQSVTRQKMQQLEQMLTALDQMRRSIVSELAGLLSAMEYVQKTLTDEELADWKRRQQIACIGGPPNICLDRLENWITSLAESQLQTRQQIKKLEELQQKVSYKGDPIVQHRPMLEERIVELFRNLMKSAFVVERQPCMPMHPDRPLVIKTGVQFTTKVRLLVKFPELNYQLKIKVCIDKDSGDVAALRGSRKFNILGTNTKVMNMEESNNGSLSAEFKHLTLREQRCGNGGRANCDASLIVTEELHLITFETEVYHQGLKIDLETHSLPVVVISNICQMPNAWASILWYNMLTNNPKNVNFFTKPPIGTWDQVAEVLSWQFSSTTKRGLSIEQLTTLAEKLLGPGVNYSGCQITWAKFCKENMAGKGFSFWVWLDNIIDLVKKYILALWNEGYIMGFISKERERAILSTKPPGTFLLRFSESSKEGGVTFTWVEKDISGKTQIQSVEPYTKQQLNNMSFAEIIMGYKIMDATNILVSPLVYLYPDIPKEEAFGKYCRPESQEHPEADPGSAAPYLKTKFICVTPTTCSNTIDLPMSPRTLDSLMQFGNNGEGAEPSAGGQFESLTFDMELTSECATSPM
UniProt P06213, residues 28-1382: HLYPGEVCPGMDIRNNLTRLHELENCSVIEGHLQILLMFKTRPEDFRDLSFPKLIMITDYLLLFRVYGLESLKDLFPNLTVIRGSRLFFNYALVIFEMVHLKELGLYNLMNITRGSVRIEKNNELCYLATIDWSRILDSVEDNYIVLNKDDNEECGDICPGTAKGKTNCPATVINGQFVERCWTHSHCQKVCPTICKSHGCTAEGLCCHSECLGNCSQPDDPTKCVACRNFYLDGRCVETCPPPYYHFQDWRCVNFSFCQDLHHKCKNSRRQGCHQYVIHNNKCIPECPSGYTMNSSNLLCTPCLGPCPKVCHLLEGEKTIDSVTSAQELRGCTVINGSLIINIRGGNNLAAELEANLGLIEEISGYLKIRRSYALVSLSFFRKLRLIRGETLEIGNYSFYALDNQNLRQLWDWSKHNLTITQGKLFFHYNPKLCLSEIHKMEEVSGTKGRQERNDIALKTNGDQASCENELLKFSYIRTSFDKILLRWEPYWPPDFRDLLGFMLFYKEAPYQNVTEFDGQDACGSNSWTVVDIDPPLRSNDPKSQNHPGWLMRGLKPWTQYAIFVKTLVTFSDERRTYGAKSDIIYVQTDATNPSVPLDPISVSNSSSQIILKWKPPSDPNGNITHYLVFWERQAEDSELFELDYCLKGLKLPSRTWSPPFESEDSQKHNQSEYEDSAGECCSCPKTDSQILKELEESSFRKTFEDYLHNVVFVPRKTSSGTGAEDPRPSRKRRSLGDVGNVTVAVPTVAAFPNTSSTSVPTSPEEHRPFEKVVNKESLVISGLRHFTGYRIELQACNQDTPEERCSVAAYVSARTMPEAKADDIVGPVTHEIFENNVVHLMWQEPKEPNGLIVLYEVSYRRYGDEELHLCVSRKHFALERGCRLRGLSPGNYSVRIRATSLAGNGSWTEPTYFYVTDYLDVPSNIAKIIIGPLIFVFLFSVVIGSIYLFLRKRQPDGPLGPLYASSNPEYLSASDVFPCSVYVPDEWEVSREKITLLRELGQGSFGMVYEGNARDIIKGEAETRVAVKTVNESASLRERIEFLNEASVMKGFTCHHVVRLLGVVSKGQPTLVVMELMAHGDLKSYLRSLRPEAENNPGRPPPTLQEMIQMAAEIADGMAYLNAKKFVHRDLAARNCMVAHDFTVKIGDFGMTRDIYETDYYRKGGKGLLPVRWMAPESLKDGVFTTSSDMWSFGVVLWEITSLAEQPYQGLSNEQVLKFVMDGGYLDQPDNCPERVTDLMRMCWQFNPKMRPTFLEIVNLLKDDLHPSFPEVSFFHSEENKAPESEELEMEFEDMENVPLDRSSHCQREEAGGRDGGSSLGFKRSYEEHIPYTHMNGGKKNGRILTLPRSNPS

One assay concerns the target Flag-SIRT5 (UniProt Q9NXA8). In words: co-IP; STAT3 full length, 1-130 and 465-770 cotransfected with Flag-SIRT5 in 293T cells; Flag-SIRT5 immunoprecipitates blotted for STAT3.
Assay [1] has as its target CBP (exogenously expressed) (UniProt Q92793). In words: co-IP; exogenously expressed CBP and insulin receptor in 293T cells (Supplementary Fig. 2a).

No constants are given. Whether binding was seen depends on the method and setting. In cells and extracts the contact can be indirect. Some results given as binding are weak or reduced against the parent protein; the word gives no strength.

As to “STAT3 1-130 (from UniProt P40763 1-130) (domain or fragment)”, in the assay with Flag-SIRT5, the binding result is listed as “binds weakly”. On the same count and under the same terms, under “STAT3 465-770 (from UniProt P40763 465-770) (domain or fragment)” stands “binds”; under “STAT3 full length (cotransfected with Flag-SIRT5) (from UniProt P40763 1-770)”, “binds”.

With “insulin receptor (exogenously expressed) (from UniProt P06213 28-1382)”, the binding result in assay [1] is on record as “binds”.
